Measured values from the supplement of paper PMC11006884.
The targets with a hit were mostly taken out for another list; the other results follow. Single values of this set are uncertain. The list shows a part of the results, in another mix than the full data.

By UniProt entry, the sequences of proteins in these tests, tags left out. Where a name states a change or a piece, a line headed by the entry shows the natural chain unless it says otherwise.
UniProt Q16527: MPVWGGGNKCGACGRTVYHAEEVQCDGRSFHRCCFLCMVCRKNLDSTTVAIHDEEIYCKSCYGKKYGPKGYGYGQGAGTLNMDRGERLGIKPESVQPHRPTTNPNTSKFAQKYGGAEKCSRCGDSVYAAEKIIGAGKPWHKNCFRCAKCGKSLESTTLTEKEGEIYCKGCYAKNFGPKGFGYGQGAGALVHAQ
UniProt Q53GQ0: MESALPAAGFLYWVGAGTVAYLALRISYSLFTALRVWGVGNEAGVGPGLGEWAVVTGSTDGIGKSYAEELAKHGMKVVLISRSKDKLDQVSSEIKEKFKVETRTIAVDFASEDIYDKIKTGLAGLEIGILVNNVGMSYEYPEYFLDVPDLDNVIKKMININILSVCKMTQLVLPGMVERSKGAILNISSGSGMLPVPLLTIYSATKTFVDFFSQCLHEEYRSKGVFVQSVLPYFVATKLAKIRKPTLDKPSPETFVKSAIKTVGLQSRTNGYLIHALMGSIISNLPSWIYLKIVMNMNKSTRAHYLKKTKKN
UniProt Q15181: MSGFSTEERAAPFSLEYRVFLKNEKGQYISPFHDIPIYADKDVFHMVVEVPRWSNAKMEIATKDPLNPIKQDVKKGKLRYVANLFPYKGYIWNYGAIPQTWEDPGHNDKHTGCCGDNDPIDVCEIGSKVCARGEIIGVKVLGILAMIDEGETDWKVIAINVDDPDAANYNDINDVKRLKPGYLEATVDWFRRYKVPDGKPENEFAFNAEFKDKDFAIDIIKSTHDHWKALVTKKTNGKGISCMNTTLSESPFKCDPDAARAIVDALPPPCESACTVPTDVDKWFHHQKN
UniProt Q15334: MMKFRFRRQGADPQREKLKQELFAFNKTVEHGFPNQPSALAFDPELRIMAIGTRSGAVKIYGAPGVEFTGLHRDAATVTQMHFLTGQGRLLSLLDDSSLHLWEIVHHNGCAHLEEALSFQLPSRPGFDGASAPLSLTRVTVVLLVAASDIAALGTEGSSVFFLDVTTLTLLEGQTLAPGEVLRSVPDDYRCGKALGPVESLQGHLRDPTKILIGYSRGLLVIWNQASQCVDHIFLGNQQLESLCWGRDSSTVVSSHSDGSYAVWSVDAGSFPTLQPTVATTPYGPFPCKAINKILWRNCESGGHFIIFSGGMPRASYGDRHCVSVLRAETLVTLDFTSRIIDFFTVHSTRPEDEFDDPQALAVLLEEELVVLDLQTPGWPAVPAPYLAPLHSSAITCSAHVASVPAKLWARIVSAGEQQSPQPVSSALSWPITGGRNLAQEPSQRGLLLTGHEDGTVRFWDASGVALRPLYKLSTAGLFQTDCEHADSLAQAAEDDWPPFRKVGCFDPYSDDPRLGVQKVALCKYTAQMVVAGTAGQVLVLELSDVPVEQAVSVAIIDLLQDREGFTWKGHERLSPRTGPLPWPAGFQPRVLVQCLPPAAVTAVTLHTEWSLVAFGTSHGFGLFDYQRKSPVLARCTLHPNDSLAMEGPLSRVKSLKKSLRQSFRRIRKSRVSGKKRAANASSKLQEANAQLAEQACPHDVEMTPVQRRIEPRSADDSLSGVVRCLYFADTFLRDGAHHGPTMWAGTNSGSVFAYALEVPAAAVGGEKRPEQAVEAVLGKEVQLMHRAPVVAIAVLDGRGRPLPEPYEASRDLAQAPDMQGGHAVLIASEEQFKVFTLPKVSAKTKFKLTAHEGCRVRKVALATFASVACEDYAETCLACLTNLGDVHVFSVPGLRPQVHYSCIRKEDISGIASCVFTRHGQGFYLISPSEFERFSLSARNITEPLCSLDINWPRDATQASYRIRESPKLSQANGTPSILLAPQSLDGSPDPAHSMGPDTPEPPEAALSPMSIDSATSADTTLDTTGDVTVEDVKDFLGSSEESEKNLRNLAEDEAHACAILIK
UniProt Q53RE8: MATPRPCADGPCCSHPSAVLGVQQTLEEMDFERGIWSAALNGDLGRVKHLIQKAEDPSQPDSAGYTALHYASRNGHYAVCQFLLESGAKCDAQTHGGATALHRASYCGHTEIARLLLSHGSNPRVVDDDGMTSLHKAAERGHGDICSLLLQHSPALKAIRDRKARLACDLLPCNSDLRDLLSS
UniProt Q15459: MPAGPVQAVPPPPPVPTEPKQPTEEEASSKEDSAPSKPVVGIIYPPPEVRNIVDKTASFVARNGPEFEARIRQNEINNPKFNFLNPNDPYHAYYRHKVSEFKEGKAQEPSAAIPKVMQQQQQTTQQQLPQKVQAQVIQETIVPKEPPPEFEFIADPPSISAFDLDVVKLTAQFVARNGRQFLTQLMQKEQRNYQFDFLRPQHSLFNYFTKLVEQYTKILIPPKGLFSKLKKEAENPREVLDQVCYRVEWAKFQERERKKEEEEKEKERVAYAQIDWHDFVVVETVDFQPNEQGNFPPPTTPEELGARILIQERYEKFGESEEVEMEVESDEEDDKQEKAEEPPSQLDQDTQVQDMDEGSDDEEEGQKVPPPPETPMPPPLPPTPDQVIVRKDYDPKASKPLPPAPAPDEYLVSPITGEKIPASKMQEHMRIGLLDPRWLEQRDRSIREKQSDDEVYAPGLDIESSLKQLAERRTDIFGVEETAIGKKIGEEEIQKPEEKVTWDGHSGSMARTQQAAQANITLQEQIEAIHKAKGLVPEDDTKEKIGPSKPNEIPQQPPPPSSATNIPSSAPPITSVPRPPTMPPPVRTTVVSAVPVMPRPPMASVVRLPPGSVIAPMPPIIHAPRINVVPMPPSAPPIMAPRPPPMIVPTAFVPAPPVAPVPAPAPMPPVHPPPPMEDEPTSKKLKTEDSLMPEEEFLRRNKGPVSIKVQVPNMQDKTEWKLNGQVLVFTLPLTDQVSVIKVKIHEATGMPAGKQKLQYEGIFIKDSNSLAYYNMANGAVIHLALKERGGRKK
UniProt Q4VCS5: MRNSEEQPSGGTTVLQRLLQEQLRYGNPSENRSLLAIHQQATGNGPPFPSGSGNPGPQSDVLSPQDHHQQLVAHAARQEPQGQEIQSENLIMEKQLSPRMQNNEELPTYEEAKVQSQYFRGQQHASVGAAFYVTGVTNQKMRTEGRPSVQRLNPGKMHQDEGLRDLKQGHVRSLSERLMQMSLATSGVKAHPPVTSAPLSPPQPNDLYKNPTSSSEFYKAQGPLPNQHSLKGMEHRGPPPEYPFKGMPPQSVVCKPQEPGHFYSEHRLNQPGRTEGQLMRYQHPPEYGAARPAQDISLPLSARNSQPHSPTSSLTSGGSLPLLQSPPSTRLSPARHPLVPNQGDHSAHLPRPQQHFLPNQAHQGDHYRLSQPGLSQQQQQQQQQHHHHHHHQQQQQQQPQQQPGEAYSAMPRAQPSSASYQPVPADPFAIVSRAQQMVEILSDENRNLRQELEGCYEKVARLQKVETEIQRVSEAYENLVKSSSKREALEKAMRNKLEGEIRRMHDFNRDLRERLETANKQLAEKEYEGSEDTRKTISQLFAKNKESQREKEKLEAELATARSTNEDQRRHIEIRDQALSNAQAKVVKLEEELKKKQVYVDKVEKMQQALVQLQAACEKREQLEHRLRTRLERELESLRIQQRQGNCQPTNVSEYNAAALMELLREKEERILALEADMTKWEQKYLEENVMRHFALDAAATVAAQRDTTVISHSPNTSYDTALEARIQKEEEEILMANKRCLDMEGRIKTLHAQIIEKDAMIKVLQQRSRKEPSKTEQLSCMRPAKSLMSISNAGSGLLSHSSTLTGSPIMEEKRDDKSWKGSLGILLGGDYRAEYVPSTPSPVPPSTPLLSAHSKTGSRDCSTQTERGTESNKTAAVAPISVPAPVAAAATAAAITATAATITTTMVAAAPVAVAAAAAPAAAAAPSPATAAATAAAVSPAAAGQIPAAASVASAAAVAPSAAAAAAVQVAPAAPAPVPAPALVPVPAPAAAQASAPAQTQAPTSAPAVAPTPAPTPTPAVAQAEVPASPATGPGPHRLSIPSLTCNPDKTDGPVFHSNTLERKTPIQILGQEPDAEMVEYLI
UniProt Q16134: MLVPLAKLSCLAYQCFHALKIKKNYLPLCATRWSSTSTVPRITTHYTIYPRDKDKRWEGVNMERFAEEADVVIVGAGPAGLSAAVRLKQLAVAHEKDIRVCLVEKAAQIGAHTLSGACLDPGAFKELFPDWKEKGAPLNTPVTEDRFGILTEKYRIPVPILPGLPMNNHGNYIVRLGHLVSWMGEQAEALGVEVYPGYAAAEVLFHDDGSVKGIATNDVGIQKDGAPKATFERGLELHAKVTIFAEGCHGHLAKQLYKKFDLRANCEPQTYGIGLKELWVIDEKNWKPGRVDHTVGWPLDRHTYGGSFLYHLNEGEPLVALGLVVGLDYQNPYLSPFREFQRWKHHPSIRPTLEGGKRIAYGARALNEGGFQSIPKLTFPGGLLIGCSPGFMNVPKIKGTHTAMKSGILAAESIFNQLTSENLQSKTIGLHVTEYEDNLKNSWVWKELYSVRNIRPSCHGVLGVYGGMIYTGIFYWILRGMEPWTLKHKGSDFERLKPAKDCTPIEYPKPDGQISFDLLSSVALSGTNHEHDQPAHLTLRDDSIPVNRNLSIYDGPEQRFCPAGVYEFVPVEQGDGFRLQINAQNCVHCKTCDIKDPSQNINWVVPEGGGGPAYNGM
UniProt Q567V2: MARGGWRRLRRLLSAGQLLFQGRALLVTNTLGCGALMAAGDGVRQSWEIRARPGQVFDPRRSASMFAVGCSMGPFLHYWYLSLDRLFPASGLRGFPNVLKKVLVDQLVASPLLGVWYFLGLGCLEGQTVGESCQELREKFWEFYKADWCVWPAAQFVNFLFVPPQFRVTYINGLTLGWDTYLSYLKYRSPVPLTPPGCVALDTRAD
UniProt Q15424: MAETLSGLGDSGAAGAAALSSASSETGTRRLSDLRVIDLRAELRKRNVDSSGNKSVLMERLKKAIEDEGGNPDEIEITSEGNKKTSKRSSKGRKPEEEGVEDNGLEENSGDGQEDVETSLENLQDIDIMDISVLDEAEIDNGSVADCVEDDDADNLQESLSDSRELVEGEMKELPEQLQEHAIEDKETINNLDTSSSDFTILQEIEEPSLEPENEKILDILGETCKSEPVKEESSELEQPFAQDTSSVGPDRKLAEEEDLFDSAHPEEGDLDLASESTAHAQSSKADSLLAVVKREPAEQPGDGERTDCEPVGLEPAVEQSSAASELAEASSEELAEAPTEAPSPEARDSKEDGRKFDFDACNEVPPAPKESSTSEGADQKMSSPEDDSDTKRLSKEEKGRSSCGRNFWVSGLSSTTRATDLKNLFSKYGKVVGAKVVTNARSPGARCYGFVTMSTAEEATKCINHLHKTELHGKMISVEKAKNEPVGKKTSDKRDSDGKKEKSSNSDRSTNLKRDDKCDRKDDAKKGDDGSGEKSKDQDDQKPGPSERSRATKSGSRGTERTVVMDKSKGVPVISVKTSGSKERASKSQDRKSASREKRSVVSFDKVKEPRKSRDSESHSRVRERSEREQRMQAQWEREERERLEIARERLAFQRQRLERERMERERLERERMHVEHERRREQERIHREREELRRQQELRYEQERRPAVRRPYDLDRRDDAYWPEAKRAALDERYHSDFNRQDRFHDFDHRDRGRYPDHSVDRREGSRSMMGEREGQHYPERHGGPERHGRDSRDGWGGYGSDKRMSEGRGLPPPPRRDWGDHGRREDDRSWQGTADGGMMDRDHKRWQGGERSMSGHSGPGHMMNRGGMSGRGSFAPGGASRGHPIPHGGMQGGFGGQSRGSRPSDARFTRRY
UniProt Q32MZ4: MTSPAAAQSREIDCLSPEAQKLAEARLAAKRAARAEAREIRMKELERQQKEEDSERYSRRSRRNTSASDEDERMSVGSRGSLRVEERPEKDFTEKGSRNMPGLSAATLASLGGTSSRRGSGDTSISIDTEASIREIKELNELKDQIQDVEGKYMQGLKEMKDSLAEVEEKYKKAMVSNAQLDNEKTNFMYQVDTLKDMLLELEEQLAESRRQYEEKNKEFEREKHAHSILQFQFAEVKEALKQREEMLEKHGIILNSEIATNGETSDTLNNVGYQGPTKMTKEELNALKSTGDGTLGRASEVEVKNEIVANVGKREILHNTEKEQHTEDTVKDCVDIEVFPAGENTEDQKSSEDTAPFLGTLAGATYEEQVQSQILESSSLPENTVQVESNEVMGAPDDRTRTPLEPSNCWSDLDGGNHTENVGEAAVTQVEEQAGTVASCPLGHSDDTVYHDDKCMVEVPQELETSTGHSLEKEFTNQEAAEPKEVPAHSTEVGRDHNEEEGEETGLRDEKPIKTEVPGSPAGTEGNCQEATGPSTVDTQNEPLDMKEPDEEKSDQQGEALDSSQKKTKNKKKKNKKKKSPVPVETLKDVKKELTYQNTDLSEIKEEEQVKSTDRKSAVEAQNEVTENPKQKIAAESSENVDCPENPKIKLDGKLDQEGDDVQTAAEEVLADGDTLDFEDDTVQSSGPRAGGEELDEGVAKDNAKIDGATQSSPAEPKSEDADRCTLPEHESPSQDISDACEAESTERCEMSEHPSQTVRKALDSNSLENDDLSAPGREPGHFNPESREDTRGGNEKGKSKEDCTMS

Compound: COC(=O)/C=C/c1ccccc1 [methyl cinnamate]
Test: log2 ratio of iodoacetamide-alkyne labeling of the cysteine site, DMSO over compound (competition); higher = stronger covalent engagement of the cysteine by the compound, active = 1 or more
Settings: 500 µM; treatment time 1 h; system: HEK293T cell lysate
How it was run: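 HEK293T lysate (2 mg/mL) was treated with DMSO or electrophile (500 µM, 1 h, ambient temperature), then iodoacetamide alkyne (1 h), clicked to sCIP-TMT reagents, pooled, trypsin-digested overnight at 37 °C, streptavidin-enriched and acid-eluted. Peptides were run on Orbitrap Eclipse LC-MS/MS with FAIMS and quantified in FragPipe. The log2 competition ratio per cysteine is mean control-channel over mean compound-channel reporter intensity. Duplicate channels and three replicates were used, and cysteines quantified in only one replicate were excluded.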

log2 ratio of iodoacetamide-alkyne labeling, inactive:
CSRP2 C167 (UniProt Q16527) 0.114
CNN3 C173 (UniProt Q15417) 0.3
UniProt Q2M1P5_C667 0.175
HSD17B12 C215 (UniProt Q53GQ0) 0.107
PPA1 C113 (UniProt Q15181) 0.225
DLGAP5 C129 (UniProt Q15398) 0.255
LLGL1 C947 (UniProt Q15334) -0.182
ANKRD39 C168 (UniProt Q53RE8) 0.224
ANO6 C105 (UniProt Q4KMQ2) 0.207
TNIP1 C212 (UniProt Q15025) 0.179
MED1 C324 (UniProt Q15648) 0.246
IAH1 C137 (UniProt Q2TAA2) -0.103
SF3A1 C244 (UniProt Q15459) 0.178
AMOT C1047 (UniProt Q4VCS5) 0.253
MED1 C135 (UniProt Q15648) 0.0948
SUZ12 C325 (UniProt Q15022) -0.0127
UniProt Q15042_C335 -0.0697
ETFDH C387 (UniProt Q16134) 0.0755
UniProt Q567V2_C198 0.133
SAFB C404 (UniProt Q15424) 0.387
LRRFIP1 C334 (UniProt Q32MZ4) -0.24
AMOT C617 (UniProt Q4VCS5) 0.0451

2 neighbouring entries already listed, quoted:
log2 ratio of iodoacetamide-alkyne labeling, inactive:
CSRP2 C167 (UniProt Q16527) 0.114
CNN3 C173 (UniProt Q15417) 0.3
